Counter-ions that a name gives are not always drawn. The list shows a part of the results. Repeats in this data set agree poorly, so a single value says little.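 A first-round screen of about ten thousand compounds sought those raising reporter output, using human embryonic kidney cells briefly transfected with a plasmid carrying a Renilla luciferase gene driven by the HSV-TK promoter.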

This experiment has as its system HEK 293FT. Briefly: log relative Renilla luciferase luminescence (reporter expression vs reference, reference not stated) (log (base not stated)); higher = higher recombinant reporter expression. The conditions noted are these: 10 µM; time after transfection 48 h.
As for `C[C@@]12C(=O)OC(=O)[C@]1(C)[C@H]1CC[C@@H]2O1` [cantharidin], the log was -1.29.

Turning to `COC(C)(C)CCC[C@H](C)C/C=C/C(C)=C/C(=O)OC(C)C` [methoprene (s)], the log came out at 0.0025.

On to `CCCC(C)(COC(N)=O)COC(=O)NC(C)C` (stereo not given) [carisoprodol], for which the log is -0.0702.

Consider `Cl[C@H]1[C@H](Cl)[C@@H](Cl)[C@@H](Cl)[C@H](Cl)[C@H]1Cl` [lindane], for which the log was determined as 0.141.

As for `Oc1ccc(Cl)cc1Cc1cc(Cl)ccc1O` [dichlorophen], the log was -0.491.

Regarding `CC(O)CN1CCN(CC(=O)[O-])CCN(CC(=O)[O-])CCN(CC(=O)[O-])CC1.[Gd+3]` (stereo not given) [gadoteridol], the log stood at 0.0289.

`CC(=O)O[C@@H]1C[C@H]2C(C)(C)C(=O)C=C[C@]2(C)[C@H]2CC[C@]3(C)C(=CC(=O)O[C@H]3c3ccoc3)[C@@]21C` [deoxygedunin]: the log was -0.124.

Turning to `N[C@@H]1C[C@H]1c1ccccc1.N[C@H]1C[C@@H]1c1ccccc1` [tranylcypromine sulfate], the log came to 0.26.

Consider `C#CC(C)(O)CC` (stereo not given) [meparfylon], for which the log came out at 0.0437.

Consider `C[N+]1(C)CCCC(OC(=O)C(O)(c2ccccc2)c2ccccc2)C1` (stereo not given) [mepenzolate bromide], for which the log came out at 0.0599.

On to `COc1cc(OC)c(OC)cc1C=O` [asarylaldehyde], for which the log was 0.0813.

As to `CCOP(=S)(OCC)Oc1ccc2c(C)c(Cl)c(=O)oc2c1` [coumophos], the log was -0.168.

Turning to `COC(=O)NC(=S)Nc1ccccc1NC(=S)NC(=O)OC` [dimethyl 4,4-o-phenylene-bis (3-thiophanate)], the log was 0.0221.

Turning to `CCOc1cc(C=O)ccc1O` [ethyl vanillin], the log was -0.0784.

With `COc1ccccc1N1CCNCC1` [1-(2-methoxyphenyl)pierazine hydrochloride], the log came out at 0.00248.

With `C=C1C[C@@H]2[C@H](CC[C@]3(C)C(=O)CC[C@@H]23)[C@@]2(C)C=CC(=O)C=C12` [exemestane], the log worked out at 0.0977.

As for `CC1CC(Cl)CCC1C(=O)OC(C)(C)C` (stereo not given) [trimedlure], the log was -0.305.

As to `CCOP(=S)(OCC)Oc1nc(Cl)c(Cl)cc1Cl` [chlorpyrifos], the log is -0.0341.

For `CCCCCCCCCCCCCCCC[n+]1ccccc1` [cetylpyridinium chloride], the log was -1.05.

As to `C=CCC1(C(C)CCC)C(=O)NC(=S)NC1=O` (stereo not given) [thiamylal sodium], the log came out at 0.131.

On to `CC(=O)O[C@@H]1CC[C@@]2(C)[C@@H](CC[C@@H]3[C@@H]2CC[C@]2(C)C(=O)CC[C@@H]32)C1` [androsterone acetate], for which the log turned out to be 0.0856.

Take `c1ccc(/N=N/c2ccccc2)cc1` [azobenzene]: the log came out at 0.0474.

On to `CC(=O)NC1CCSC1=O` (stereo not given) [citiolone], for which the log amounted to 0.0463.

As to `O=C(O)Cc1cnc[nH]1` [imidazol-4-ylacetic acid sodium salt], the log was 0.0043.

With `COc1cc([C@@H]2c3cc4c(cc3[C@H](OC(C)=O)[C@H]3COC(=O)[C@@H]23)OCO4)cc(OC)c1OC` [picropodophyllin acetate], the log was 0.0109.

Take `CNC(=O)Oc1ccccc1OC(C)C` [propoxur]: the log is -0.0385.

Turning to `c1ccc2c(c1)sc1ccccc12` [dibenzothiophene], the log was -0.124.

For `O=P1(N(CCCl)CCCl)NCCCO1` (stereo not given) [cyclophosphamide], the log was -0.147.

In the case of `CN1C(=O)CCS(=O)(=O)C1c1ccc(Cl)cc1` (stereo not given) [chlormezanone], the log turned out to be 0.037.

`CC(C)C[C@H]1C(=O)N2CCC[C@H]2[C@]2(O)O[C@](NC(=O)[C@@H]3C=C4c5cccc6[nH]c(Br)c(c56)C[C@H]4N(C)C3)(C(C)C)C(=O)N12` [bromocriptine mesylate]: the log is -0.119.

As to `CN1[C@@H]2CC[C@H]1C[C@@H](OC(=O)C(CO)c1ccccc1)C2` (stereo not given in full) [atropine sulfate], the log is -0.111.

As for `CNCC(O)c1ccc(O)cc1` (stereo not given) [oxedrine], the log was -0.0121.

Take `CN[C@@H]1[C@@H](O)[C@@H](O[C@@H]2[C@@H](O)[C@H](O[C@H]3O[C@H]([C@@H](C)O)[C@@H](O)[C@H](O)[C@H]3N)[C@@H](N)C[C@H]2N)OC[C@]1(C)O` [geneticin]: the log was 0.0252.

Take `CNC(C)(C)Cc1ccccc1` [mephentermine sulfate]: the log was 0.00714.

For the compound `CCOP(=S)(OCC)Oc1cc(C)nc(C(C)C)n1` [dimpylate], the log was -0.177.

Consider `C[C@]12CCC(=O)C(O)=C1CC[C@@H]1[C@@H]2CC[C@]2(C)C(=O)CC[C@@H]12` [formestane], for which the log was 0.0515.

With `CNC(=O)Oc1ccc2c(c1)[C@]1(C)CCN(C)[C@@H]1N2C` [physostigmine salicylate], the log is -0.0356.

On to `CN1[C@H]2C[C@H](OC(=O)[C@H](CO)c3ccccc3)C[C@@H]1[C@@H](O)C2` [anisodamine hydrobromide], for which the log stood at 0.0866.

As to `CN(C)C(=O)Oc1cccc([N+](C)(C)C)c1` [neostigmine bromide], the log was -0.0356.

On to `COc1ccc(C(CN(C)C)C2(O)CCCCC2)cc1` (stereo not given) [venlafaxine hydrochloride], for which the log amounted to 0.178.

For `COc1cc2c(cc1OC)-c1c(oc3c4c(ccc3c1=O)OC(C(C)C)C4)CO2` (stereo not given) [dehydrodihydrorotenone], the log worked out at 0.0933.

As to `O=c1c(O)c(-c2ccc(O)c(O)c2)oc2c(O)c(O)cc(O)c12` [gossypetin], the log was 0.0873.

As for `CN1CCc2cc3c(cc2C1O)OCO3` (stereo not given) [hydrastinine hydrochloride], the log is -0.154.

In the case of `CC1(C)C2CC(=O)[C@]3(C)C(CC[C@@]4(C)[C@H](c5ccoc5)OC(=O)[C@H]5O[C@]543)[C@@]2(C)C(=O)C[C@H]1O` (stereo not given in full) [1,7-dideacetoxy-1,7-dioxo-3-deacetylkhivorin], the log is -0.606.

Take `COc1ccc(C(=O)O)cc1OC` [veratric acid]: the log came out at 0.101.

As to `NP(N)(=O)NC(=O)c1ccc(F)cc1` [flurofamide], the log was -0.0411.

With `NCC(=O)c1ccccc1` [phenacylamine hydrochloride], the log came to 0.0637.

Consider `CC[C@H]1CN2CC[C@H]1C[C@H]2[C@H](O)c1ccnc2ccc(OC)cc12` [hydroquinine hydrobromide hydrate], for which the log was -0.02.

As for `COc1ccc(/C=C/c2cc(O)cc(O)c2)cc1` [resveratrol 4'-methyl ether], the log is -0.108.

For the compound `C/C=C(\C)C(=O)O[C@H]1C[C@@H](OC(C)=O)[C@@]2(C(=O)OC)CO[C@H]3[C@@H](O)[C@@](C)([C@]45O[C@@]4(C)[C@H]4C[C@@H]5O[C@@H]5OC=C[C@@]54O)[C@H]4[C@]1(CO[C@]4(O)C(=O)OC)[C@@H]32` [azadirachtin], the log was -0.0162.

The values above are taken from the supplement of paper PMC7024190.
